ChEMBL document CHEMBL4433200, “Another look at phenolic compounds in cancer therapy the effect of polyphenols on ubiquitin-proteasome system” (Eur J Med Chem, 2019)
pIC50: −log10 of the molar value.

Molecular target: T1, Proteasome Macropain subunit MB1 (Homo sapiens, UniProt P28074)
T1 sequence (P28074 whole entry): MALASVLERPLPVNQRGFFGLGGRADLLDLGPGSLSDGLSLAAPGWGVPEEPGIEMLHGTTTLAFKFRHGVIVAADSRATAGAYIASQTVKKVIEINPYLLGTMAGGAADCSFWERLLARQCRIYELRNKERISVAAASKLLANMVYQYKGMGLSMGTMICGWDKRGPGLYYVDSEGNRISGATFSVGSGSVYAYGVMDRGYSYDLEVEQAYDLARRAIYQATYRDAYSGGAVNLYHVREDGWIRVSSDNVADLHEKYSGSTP
Assay: Inhibition of chymotrypsin-like activity of purified human erythrocyte 20S proteasome assessed as decrease in AMC hydrolysis using Suc-LLVY-AMC as substrate preincubated for 10 mins and measured by fluorescence based method

- pIC50: 5.28
Structure (SMILES): O=C1C[C@@H](c2ccccc2)Oc2cc(O)ccc21
